# Percent effect of library compounds

Mtb glucose medium: 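Phenotypic screen: M. tuberculosis growth, glucose 7H9 medium, 3 days; the read-out is not stated. Tested at 50 µM. Direction is inferred from retests: higher values go with more growth inhibition. About 69,000 compounds were tested under these conditions; 1.1% (about 760) showed 50% or more at least once.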
Mtb cholesterol medium: 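Whole-cell growth test on Mycobacterium tuberculosis, read after 4 days in a medium based on cholesterol and the lipid DPPC; the read-out is not stated. Compounds at 50 µM. The record gives no direction; compounds that gave an IC50 in retests scored well above the rest, so higher reads as more growth inhibition. Size under these conditions: about 69,000 compounds, about 370 of them at 50% or above in at least one test.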

Each number is a percent effect as filed. How 0% and 100% were set is not recorded. Most values in the screen are low, and negative values occur. This is an unselected part of the compounds tested. Two or more numbers in one place are separate tests of the same structure; such repeats can differ widely.

Result for Cc1csc(N2CCN(Cc3nnsc3Cl)CC2C)n1 (stereo not shown) was Mtb glucose medium: 28.92%; Mtb cholesterol medium: 3.304%. For O=c1ccc(-c2cccs2)nn1CN1CCN(Cc2ccccc2)CC1 the result was Mtb glucose medium: 10.27%; Mtb cholesterol medium: 9.125%. Cc1c(Cl)cccc1NC(=O)CCNc1ccc(C#N)cn1 gave Mtb glucose medium: -7.679%; Mtb cholesterol medium: -4.232% & -6.812%. With COCc1nc(CNC2CCSC2)no1 (stereo not shown) the screen gave Mtb glucose medium: -15.95%; Mtb cholesterol medium: -4.933%. With CC(C)(C)CC(=O)NCC(=O)Nc1ccn(CCCn2ccnc2)n1 the screen gave Mtb glucose medium: 9.824%; Mtb cholesterol medium: 5.758%. With N#Cc1ccc(CSCCN2CCOCC2)cc1 the screen gave Mtb glucose medium: 9.328%; Mtb cholesterol medium: 6.295%. [H][C@]12CCCN(S(=O)(=O)c3ccc4c(c3)CCC4)[C@@]1([H])CN(C(=O)C1CC1)C2 read Mtb glucose medium: 35.78%; Mtb cholesterol medium: 3.748% & -29.5%. [H][C@]12CN(C(=O)c3cnn(C)c3)CC[C@@]1(O)CCN(C(=O)C1CCCC1)C2 gave Mtb glucose medium: 0.8958% & -0.1721%; Mtb cholesterol medium: -0.2938% & 2.136%.

CC(C)S(=O)(=O)c1nnc(CCNC(=O)OC(C)(C)C)o1 gave Mtb glucose medium: -11.27%; Mtb cholesterol medium: -23.89%. Result for O=C(Cc1ccc(Cl)cc1)N[C@@H]1CCC[C@@H](O)[C@@H]1O was Mtb glucose medium: -3.86%; Mtb cholesterol medium: -5.112% & 5.727%. O=C(O)C(F)(F)F.O=C1COC2(CCN(c3ncccn3)CC2)CN1 gave Mtb glucose medium: 14.17%; Mtb cholesterol medium: -1.588%. Result for CO[C@H]1COCCN(C(=O)c2ccc(C#N)cc2)C1 was Mtb glucose medium: 0.318% & 4.478%; Mtb cholesterol medium: 5.621%. CN1CCN(c2cc(CNC(=O)c3ccsc3)ccn2)CC1 read Mtb glucose medium: 19.78%; Mtb cholesterol medium: 6.357%. For c1cncc(CN2CCCC3(COCCN(c4cncnc4)C3)C2)c1 (stereo not shown) the result was Mtb glucose medium: 2.167%; Mtb cholesterol medium: 0.2114% & 17.75%. O=C(O)C(F)(F)F.O=C(c1ccc[nH]1)N1CCC2(CCCN2Cc2cccnc2)CC1 read Mtb glucose medium: -12.53%; Mtb cholesterol medium: -22.22%. Result for Cc1cccc(-c2ccc(C(=O)NCCN3CCOCC3)c(=O)[nH]2)c1 was Mtb glucose medium: 21.92%; Mtb cholesterol medium: 65.09%.

For CNC(=O)c1cccc(CCNc2ncc(Br)cn2)c1 the result was Mtb glucose medium: 12.53% & 28.82%; Mtb cholesterol medium: 9.763%. Result for CN(C(=O)c1ccc(S(=O)(=O)NC(C)(C)C)cc1)C1(C#N)CCC1 was Mtb glucose medium: 8.988%; Mtb cholesterol medium: 4.536%. CN1CCN(CCCNS(=O)(=O)Cc2ccccc2F)CC1 gave Mtb glucose medium: -1.742%; Mtb cholesterol medium: -9.706%. CCCN(CCC)c1ncc(S(=O)(=O)c2ccc(C)cc2)c(N)n1 read Mtb glucose medium: -17.14% & -2.659%; Mtb cholesterol medium: -19.24%. With CC(C(=O)NCC(C)(C)c1ccc(Br)cc1)n1cncn1 (stereo not shown) the screen gave Mtb glucose medium: 14.54%; Mtb cholesterol medium: -27.54%. CSC1=Nc2c(cnn2-c2ccc(C)cc2)C2=NCCCN12 read Mtb glucose medium: 25.09%; Mtb cholesterol medium: 56.76%. COCC(C)NC(=O)N1CCN(S(C)(=O)=O)CC1 (stereo not shown) read Mtb glucose medium: 25.55%; Mtb cholesterol medium: 6.307%. Result for CCc1nnc(CNC2CCc3nc(C(C)C)nn3C2)o1 (stereo not shown) was Mtb glucose medium: -6.84%; Mtb cholesterol medium: -23.14%.

CCOCCOc1ccccc1C(=O)N1CCCC(c2ncc[nH]2)C1 (stereo not shown) gave Mtb glucose medium: -0.5917% & 3.206%; Mtb cholesterol medium: -19.36%. Result for CCNc1nnc(SCc2nnc(C(C)(C)C)o2)s1 was Mtb glucose medium: -34.93%; Mtb cholesterol medium: -32.5%. CCCNC(=O)C1CCN(CC(O)c2ccccc2C(F)(F)F)CC1 (stereo not shown) read Mtb glucose medium: 12.13%; Mtb cholesterol medium: -9.717%. NC(=O)C1(c2cnccn2)CCCN1Cc1ccccn1 (stereo not shown) read Mtb glucose medium: 12.05%; Mtb cholesterol medium: 14.33%. COC(=O)C(c1cc(F)ccc1F)N(C)C(=O)c1csnn1 (stereo not shown) gave Mtb glucose medium: -36.71%; Mtb cholesterol medium: -14.14%. COc1ccc(CC(=O)N2CCCC(Cn3cc(CN)nn3)C2)cc1 (stereo not shown) read Mtb glucose medium: 6.642%; Mtb cholesterol medium: 13.4%. COCC(NC(=O)c1cn2ccsc2n1)c1ccnn1C (stereo not shown) read Mtb glucose medium: -32.19%; Mtb cholesterol medium: -19.98%. With CCN1CCC(CNC(=O)C2(c3cccc(C)c3)CC2)C1 (stereo not shown) the screen gave Mtb glucose medium: -1.501%; Mtb cholesterol medium: -12.34%.

Result for CS(=O)(=O)NC(=O)c1ccn(-c2ccccc2Cl)n1 was Mtb glucose medium: -16.34%; Mtb cholesterol medium: 6.595%. With CC1COC2(CCN(C(=O)Cc3ccncc3)CC2)C1.O=C(O)C(F)(F)F (stereo not shown) the screen gave Mtb glucose medium: -6.161%; Mtb cholesterol medium: -20.86%. Result for Cc1noc(-c2cccnc2N(C)Cc2ccc([S+](C)[O-])cc2)n1 (stereo not shown) was Mtb glucose medium: 5.848%; Mtb cholesterol medium: -12.41%. CCn1c(C2CCCN(Cc3nccn3CCOC)C2)nn(C)c1=O (stereo not shown) gave Mtb glucose medium: 25.05%; Mtb cholesterol medium: 13.16%. O=C(CCn1ncc2ccccc21)N1CCCC(Cc2cccnc2)C1 (stereo not shown) read Mtb glucose medium: 19.77%; Mtb cholesterol medium: -0.3948%. For CC(C)Oc1ncccc1CNC(=O)N1CCC1 the result was Mtb glucose medium: -1.21% & -47.45%; Mtb cholesterol medium: -3.015%. c1ccc(-c2ncn(CCCN3CCOCC3)c2-c2ccncc2)cc1 gave Mtb glucose medium: -2.737%; Mtb cholesterol medium: 10.42%. For CC(=O)Nc1cccc(Cn2nc(C)nc2C)c1 the result was Mtb glucose medium: -3.378%; Mtb cholesterol medium: -6.131%.

Cc1cc(C(=O)N2CCC3(CC2)c2nc[nH]c2CCN3CC(C)C)no1 read Mtb glucose medium: -1.482%; Mtb cholesterol medium: -1.485%. With O=C(c1cc2cccc(F)c2[nH]1)N1C[C@@H](O)[C@H](N2CCOCC2)C1 the screen gave Mtb glucose medium: -11.72%; Mtb cholesterol medium: 14.21% & -6.413%.

From ChEMBL document CHEMBL3988442, “University of Dundee, Small-Polar-MMV Screening Library” (2021).